# According to publication PMC7819943, “Rice protein-binding microarrays: a tool to detect cis-acting elements near promoter regions in rice”:
# This is one part of the list.
# Target: T1, OsSMF1 (Oryza sativa, UniProt Q6ZLB0 1-436)
# T1 sequence: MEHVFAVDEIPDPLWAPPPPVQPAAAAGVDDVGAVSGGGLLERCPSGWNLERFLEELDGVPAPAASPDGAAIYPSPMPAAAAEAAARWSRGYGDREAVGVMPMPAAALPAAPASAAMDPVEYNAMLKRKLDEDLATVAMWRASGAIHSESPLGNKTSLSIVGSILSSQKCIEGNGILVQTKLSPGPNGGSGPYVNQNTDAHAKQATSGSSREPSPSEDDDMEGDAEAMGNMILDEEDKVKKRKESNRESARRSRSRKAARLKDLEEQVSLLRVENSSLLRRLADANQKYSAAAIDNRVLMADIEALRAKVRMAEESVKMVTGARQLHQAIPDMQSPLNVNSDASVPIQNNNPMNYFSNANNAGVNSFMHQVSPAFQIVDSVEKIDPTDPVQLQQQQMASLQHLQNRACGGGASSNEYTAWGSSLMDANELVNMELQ
# Assay: protein-binding microarray (RPBM); PBS, 2% BSA, 51.3 ng/ul salmon testes DNA, 50 uM zinc acetate, 200 nM TF, 25 C, 1 h; high values mean tight binding
# Conditions: protein: recombinant; tags: N-terminal polyhistidine and DsRed monomer fusion (pET32a); chain copies: 2; label: CyDye5-dUTP incorporated in the synthesized complementary strand; 3' TTTTT single-stranded linker to array surface; dsDNA, one strand shown
# Outline: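 The binding signal is fluorescence intensity per feature, in arbitrary units, read on an Axon 4000B scanner. Polyhistidine- and DsRed-tagged transcription factors (N-terminal fusions) from E. coli BL21-CodonPlus were purified on Ni–NTA and applied at 200 nM for 1 h at 25 °C to a double-stranded, BSA-blocked custom Agilent array in buffer with 50 µM zinc acetate.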
row,Sequence,binding signal
1,ATGGCAACACAATCGTCGTCGTCGCCGCCGCCGTCAGCATCGGAGTCACCTAGTGCAG,4900 fluorescence intensity (a.u.)
2,AATTTTCAATGATACGTTTATTGTATGACTATTGACTAGTCGGAGTCACCTAGTGCAG,3300 fluorescence intensity (a.u.)
3,GAGTCCGGGGCAGCCAGATCCAGCGCCACCTCACCCATGGCGGAGTCACCTAGTGCAG,8200 fluorescence intensity (a.u.)
4,ACTGCTGCCTCACGCAGTCACGACGCTGAAGTGGTAGTAGCGGAGTCACCTAGTGCAG,3650 fluorescence intensity (a.u.)
5,TTTCATTTGCAATGCGCTTTTGTAACTAAAGGAATTGTTCCGGAGTCACCTAGTGCAG,27200 fluorescence intensity (a.u.)
6,AAACCTCCACCACCACCGCCACCACCGCCGCGCAAAACCCCGGAGTCACCTAGTGCAG,3740 fluorescence intensity (a.u.)
7,AACCCCTTTTGCTGAGCCTCTTCTAAGTGAACAGATTACTCGGAGTCACCTAGTGCAG,3140 fluorescence intensity (a.u.)
8,CGTGCATTTCAGCCGCTCTTGCCGTGCCACGCCCACTCCCCGGAGTCACCTAGTGCAG,4410 fluorescence intensity (a.u.)
9,TCACGTGTATATATGCCACCGTCACGCCTTCTCCAGGGCTCGGAGTCACCTAGTGCAG,4800 fluorescence intensity (a.u.)
10,CATCACAATACGTCAATATCACATCCGGATGACTAGGTAACGGAGTCACCTAGTGCAG,4740 fluorescence intensity (a.u.)
11,TTATTTGGATGTAAGTAGCTATATCATTTGTGTTAAGAATCGGAGTCACCTAGTGCAG,30000 fluorescence intensity (a.u.)
12,ACTTGATGTTGTCATATGATGGTTGCATGCTTGCATGTTTCGGAGTCACCTAGTGCAG,3840 fluorescence intensity (a.u.)
13,CGTGTATTTATTACTGACACGTGGATCCGATGATTACTGGCGGAGTCACCTAGTGCAG,14800 fluorescence intensity (a.u.)
14,TGAGCTTACACGTTTTGATACCTGTGATGTTCGAATAAACCGGAGTCACCTAGTGCAG,3220 fluorescence intensity (a.u.)
15,TTCTTCTTCTATTCCACGTCCACGTGTATGGCCAGGAGTTCGGAGTCACCTAGTGCAG,16100 fluorescence intensity (a.u.)
16,GGAAGCGCCAGCCAGCGCTCGCCGTTGTCACCTGTCACACCGGAGTCACCTAGTGCAG,3480 fluorescence intensity (a.u.)
17,TAAGGTACATCCATATGTTGTTCTTTTAATTTCTACGTGTCGGAGTCACCTAGTGCAG,3320 fluorescence intensity (a.u.)
18,ATGTGTTGATTTGTGTGTATGACTCAGCTTACTACTACATCGGAGTCACCTAGTGCAG,10500 fluorescence intensity (a.u.)
19,GATGGATGGATGGATCCCAAGTGGGCGACGTGGCTGCTTCCGGAGTCACCTAGTGCAG,6010 fluorescence intensity (a.u.)
20,ATCCCGCGCAAAAGCTGCGGCTCCACGCGCGCGCGTCATCCGGAGTCACCTAGTGCAG,4070 fluorescence intensity (a.u.)
21,TACGAGCTTCTCCTCCTCCGCTGGTCATCATCCTACCTGTCGGAGTCACCTAGTGCAG,5560 fluorescence intensity (a.u.)

row,Sequence,binding signal
1,TACTCTAGTATATCACGTTGATGATATCATGATACTTAAGCGGAGTCACCTAGTGCAG,3500 fluorescence intensity (a.u.)
2,TTGAACCAACACTATATCATACACCTAGTCACCTACTCCTCGGAGTCACCTAGTGCAG,4770 fluorescence intensity (a.u.)
3,CGCGCTCTCCGACAAGGTCGGCCAGCTCACGGCGCTCCGCCGGAGTCACCTAGTGCAG,4180 fluorescence intensity (a.u.)
4,GTGCATAAATTTATTAAAATAGAAAATTAATGCAGTGCCACGGAGTCACCTAGTGCAG,4660 fluorescence intensity (a.u.)
5,CCGTGCGCCGCACCGCGCCGCGCCACGTCGCGTGGGCCCGCGGAGTCACCTAGTGCAG,4960 fluorescence intensity (a.u.)
6,AGCCAAATCAGAGGCAACAATGTATGTAGCATGTTGTCCTCGGAGTCACCTAGTGCAG,3590 fluorescence intensity (a.u.)
7,GAGCTGCGGCGCGCTGCTCGCTAGGCTGATGAAGCACAAGCGGAGTCACCTAGTGCAG,28100 fluorescence intensity (a.u.)
8,GGTGAGAGACCTTTCCTGAAACCAGCAGAGGGAGCTTTGCCGGAGTCACCTAGTGCAG,3250 fluorescence intensity (a.u.)
9,GCACCCCTCTGACGTGGTCACTGACAGGTGGGCCCGAGAGCGGAGTCACCTAGTGCAG,13100 fluorescence intensity (a.u.)
10,GCTCTCATCAACTCGACTCGACCGGTAATCGATCGCGACTCGGAGTCACCTAGTGCAG,34800 fluorescence intensity (a.u.)
11,AAAGAGGAGGAATCTTGGGCCGCTGTAATCTTTCCTTCGACGGAGTCACCTAGTGCAG,3730 fluorescence intensity (a.u.)
12,ATCCGAATGGCGTACGCAGATATATATGTCCAGCGCGGAACGGAGTCACCTAGTGCAG,3350 fluorescence intensity (a.u.)
13,CCGGCCACATGACCATAGAGCTCGAGTGGTGAGTGCGGACCGGAGTCACCTAGTGCAG,3150 fluorescence intensity (a.u.)
14,CACGTCATCTTCCCCTTTCACTCGCTCACCACCACCGCGGCGGAGTCACCTAGTGCAG,27800 fluorescence intensity (a.u.)
15,TAAATCGATCCTACGTCACATGACAGACTGGACCCTTGTCCGGAGTCACCTAGTGCAG,10900 fluorescence intensity (a.u.)
16,CCTCTGCAGGATCCTGCAGTGCCGACGCAGCATGGAGCCACGGAGTCACCTAGTGCAG,3210 fluorescence intensity (a.u.)
17,AGTAGTAGAGAGGAGGAGAGATTGCGTGGGGATAGCAGAACGGAGTCACCTAGTGCAG,3910 fluorescence intensity (a.u.)
18,GATATATCCACATCAGCGTGCATACAAGTGTGTCAAAGCTCGGAGTCACCTAGTGCAG,8160 fluorescence intensity (a.u.)
19,TCGTTCAGGTTCGCCCCGTCCAGCCACCCGCCGCCGCCGCCGGAGTCACCTAGTGCAG,13700 fluorescence intensity (a.u.)
20,GGTGGTGGTGGTGGTGGTGTTGTTGCTGCTGCTACTACTCCGGAGTCACCTAGTGCAG,3870 fluorescence intensity (a.u.)
21,GACCCCATGTTCTTGTCTCCTCATGACACACTGGCCATGTCGGAGTCACCTAGTGCAG,3260 fluorescence intensity (a.u.)

# Shown as tab-separated lines: part of the list above.
row	Sequence	binding signal
1	TACTCTAGTATATCACGTTGATGATATCATGATACTTAAGCGGAGTCACCTAGTGCAG	3500 fluorescence intensity (a.u.)
2	TTGAACCAACACTATATCATACACCTAGTCACCTACTCCTCGGAGTCACCTAGTGCAG	4770 fluorescence intensity (a.u.)
3	CGCGCTCTCCGACAAGGTCGGCCAGCTCACGGCGCTCCGCCGGAGTCACCTAGTGCAG	4180 fluorescence intensity (a.u.)
4	GTGCATAAATTTATTAAAATAGAAAATTAATGCAGTGCCACGGAGTCACCTAGTGCAG	4660 fluorescence intensity (a.u.)
5	CCGTGCGCCGCACCGCGCCGCGCCACGTCGCGTGGGCCCGCGGAGTCACCTAGTGCAG	4960 fluorescence intensity (a.u.)
6	AGCCAAATCAGAGGCAACAATGTATGTAGCATGTTGTCCTCGGAGTCACCTAGTGCAG	3590 fluorescence intensity (a.u.)
7	GAGCTGCGGCGCGCTGCTCGCTAGGCTGATGAAGCACAAGCGGAGTCACCTAGTGCAG	28100 fluorescence intensity (a.u.)
8	GGTGAGAGACCTTTCCTGAAACCAGCAGAGGGAGCTTTGCCGGAGTCACCTAGTGCAG	3250 fluorescence intensity (a.u.)
